Results published in PubChem BioAssay AID2073 (Sanford-Burnham Center for Chemical Genomics, 2009).
Hit rate of the full screen: of about 290,000 compounds, about 570 (0.2%) were called active. Inconclusive means that the source gave no clear call. Such entries were picked first, then a sample of the others. Cut-off read from the data, not from the text of the source: active = inhibition mostly above about 51% (no sharp cut-off); inconclusive = no clear call, values can overlap the other calls; inactive = mostly below about 53%.

By UniProt entry, the sequences of proteins in these tests, tags left out.
UniProt Q00975, whole entry, looked up: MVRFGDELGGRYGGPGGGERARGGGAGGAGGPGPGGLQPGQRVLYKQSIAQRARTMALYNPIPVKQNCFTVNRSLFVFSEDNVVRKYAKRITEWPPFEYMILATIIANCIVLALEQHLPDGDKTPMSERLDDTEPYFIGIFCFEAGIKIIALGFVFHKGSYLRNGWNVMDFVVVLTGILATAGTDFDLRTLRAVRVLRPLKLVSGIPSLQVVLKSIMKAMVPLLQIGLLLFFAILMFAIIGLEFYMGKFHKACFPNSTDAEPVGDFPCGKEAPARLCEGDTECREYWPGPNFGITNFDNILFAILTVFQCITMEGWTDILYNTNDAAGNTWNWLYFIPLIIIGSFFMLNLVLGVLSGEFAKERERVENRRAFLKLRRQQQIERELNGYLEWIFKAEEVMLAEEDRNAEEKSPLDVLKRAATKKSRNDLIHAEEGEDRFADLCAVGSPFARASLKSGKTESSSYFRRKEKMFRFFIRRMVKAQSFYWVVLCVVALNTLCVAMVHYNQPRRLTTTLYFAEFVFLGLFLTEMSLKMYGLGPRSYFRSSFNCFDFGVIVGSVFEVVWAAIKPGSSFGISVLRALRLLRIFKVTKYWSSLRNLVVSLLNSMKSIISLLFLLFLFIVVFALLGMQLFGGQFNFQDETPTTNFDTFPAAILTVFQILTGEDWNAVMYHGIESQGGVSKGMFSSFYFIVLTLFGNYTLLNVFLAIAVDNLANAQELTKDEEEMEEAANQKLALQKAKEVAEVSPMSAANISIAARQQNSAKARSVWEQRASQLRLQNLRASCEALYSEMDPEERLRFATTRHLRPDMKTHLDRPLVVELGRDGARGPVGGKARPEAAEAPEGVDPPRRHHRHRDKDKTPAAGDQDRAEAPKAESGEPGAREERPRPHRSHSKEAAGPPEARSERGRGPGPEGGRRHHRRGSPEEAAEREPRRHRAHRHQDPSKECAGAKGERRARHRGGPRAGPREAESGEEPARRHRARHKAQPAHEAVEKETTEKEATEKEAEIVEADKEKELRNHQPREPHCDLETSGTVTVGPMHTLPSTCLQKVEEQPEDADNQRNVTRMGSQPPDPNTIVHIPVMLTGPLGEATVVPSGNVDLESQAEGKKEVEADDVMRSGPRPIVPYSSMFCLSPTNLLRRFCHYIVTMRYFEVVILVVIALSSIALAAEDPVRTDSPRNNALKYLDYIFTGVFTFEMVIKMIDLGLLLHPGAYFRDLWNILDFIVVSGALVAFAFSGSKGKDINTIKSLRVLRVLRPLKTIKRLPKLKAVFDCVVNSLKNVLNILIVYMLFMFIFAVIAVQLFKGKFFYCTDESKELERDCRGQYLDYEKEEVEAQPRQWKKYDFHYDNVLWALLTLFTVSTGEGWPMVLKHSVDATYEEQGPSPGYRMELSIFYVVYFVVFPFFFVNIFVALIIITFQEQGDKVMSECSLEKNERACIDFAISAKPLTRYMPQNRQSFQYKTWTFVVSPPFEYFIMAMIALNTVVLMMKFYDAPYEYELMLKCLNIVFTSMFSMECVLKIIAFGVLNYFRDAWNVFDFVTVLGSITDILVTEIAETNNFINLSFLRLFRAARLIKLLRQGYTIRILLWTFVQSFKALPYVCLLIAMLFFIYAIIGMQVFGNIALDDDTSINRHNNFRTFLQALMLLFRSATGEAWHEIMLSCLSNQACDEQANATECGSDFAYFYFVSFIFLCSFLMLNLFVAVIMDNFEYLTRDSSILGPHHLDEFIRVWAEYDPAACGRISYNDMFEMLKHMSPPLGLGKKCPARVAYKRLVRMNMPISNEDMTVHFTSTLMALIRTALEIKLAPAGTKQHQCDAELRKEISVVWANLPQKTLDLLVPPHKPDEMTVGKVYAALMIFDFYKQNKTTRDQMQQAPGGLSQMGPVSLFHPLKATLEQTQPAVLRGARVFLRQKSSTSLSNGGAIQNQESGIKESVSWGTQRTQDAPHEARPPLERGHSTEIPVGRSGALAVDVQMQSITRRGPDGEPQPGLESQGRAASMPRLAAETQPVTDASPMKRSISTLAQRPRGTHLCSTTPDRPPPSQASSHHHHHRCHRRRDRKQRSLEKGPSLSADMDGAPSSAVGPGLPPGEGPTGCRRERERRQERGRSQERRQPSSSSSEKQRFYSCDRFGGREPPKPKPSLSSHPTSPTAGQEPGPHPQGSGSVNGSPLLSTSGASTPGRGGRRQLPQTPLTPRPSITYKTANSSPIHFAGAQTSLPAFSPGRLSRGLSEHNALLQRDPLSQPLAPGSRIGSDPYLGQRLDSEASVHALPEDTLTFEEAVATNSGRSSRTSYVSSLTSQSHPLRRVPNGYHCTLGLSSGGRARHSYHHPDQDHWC

Each molecule was assayed against Voltage-dependent N-type calcium channel subunit alpha-1B (Homo sapiens) (UniProt Q00975) (assay: disruptors of CaV2.2 binding to Mint1 – biochemical, HTRF (AID 2073)). Settings: HTRF protein-protein interaction, Mint1-CaV2.2; at 20 µM; active compounds read high.

| SMILES | inhibition |
| --- | --- |
| Cc1cccc2sc(NC(=O)c3cccc(S(=O)(=O)N4CCc5ccccc54)c3)nc12 | active: 68.3% |
| CN(Cc1cccnc1)C(=O)CC1C(=O)NCCN1Cc1ccc(-c2ccccc2)cc1 (stereo not given) | inconclusive: 59.2% |
| CCc1ccccc1NC(=O)CC1CS(=O)(=O)CC1CC(=O)Nc1ccccc1CC (stereo not given) | inconclusive: 78.8% |
| C=CCn1c(SCC(=O)NCC2CCCO2)nc2scc(-c3ccco3)c2c1=O (stereo not given) | inactive: 33% |
| O=C1/C(=C/c2cccc(Br)c2)SC(=S)N1/N=C/c1cc([N+](=O)[O-])ccc1O | inactive: -2.1% |
| COc1ccccc1/C=C/C=N/NC(=O)CN1CCN(S(=O)(=O)c2ccc(C)cc2)CC1 | inconclusive: 98.1% |
| COC(=O)c1cc(O)c(O)c(O)c1 | inactive: -68.3% |
| C=CCn1c(SC)nnc1C1COc2ccccc2O1 (stereo not given) | inconclusive: 50% |
| N=C1C(c2nc3ccccc3s2)=C(O)CN1NC(=O)c1c[nH]c2ccccc12 | active: 53.4% |
| N#C/C(=C\c1ccc(C(=O)O)cc1)c1nc2sc3c(c2c(=O)[nH]1)CCCC3 | active: 73.5% |
| CCN(CC)C(=O)c1cn(CCC#N)nc1-c1ccc2c(c1)OCCO2 | inconclusive: 77.7% |
| Brc1cc2c(cc1Br)OCCOCCOCCO2 | inconclusive: 50.3% |
| O=C(CSc1nc2ccccc2c(=O)[nH]1)Nc1ccc(Br)cc1 | inconclusive: 63% |
| Fc1ccc(N=Cc2ccc[nH]2)cc1 | inactive: -9.3% |
| CCCCn1c(=O)[nH]c(=O)c2c1nc(-c1ccccc1F)n2Cc1ccccc1 | inconclusive: 52.5% |
| N#Cc1c(-c2ccccc2)cc(-c2ccccc2)nc1SCc1nnc(-c2ccccc2)o1 | inconclusive: 56.8% |
| COc1ccc(-c2cn3cccnc3n2)cc1F | inconclusive: 50.1% |
| COc1cc2c(cc1OC)CN(Cc1cc(=O)n3cc(C)ccc3n1)CC2 | inconclusive: 92.1% |
| O=C(CCNC(=O)N1CCn2c1nc1ccccc12)NCc1ccccc1 | inactive: -1.3% |
| c1ccc(Oc2ccc(-c3ccnc4nc(N5CCN(c6ccccc6)CC5)nn34)cc2)cc1 | inconclusive: 55.9% |
| CCCCCCC(=O)Oc1ccc(N2C(=O)CCC2=O)cc1 | inconclusive: 56.2% |
| CCOc1ccc(/C=N/NC(=O)CSc2n[nH]c(=O)[nH]c2=O)cc1OC | inactive: -0.5% |
| CSc1nnc(NC(=O)C23CC4CC(CC(C4)C2)C3)s1 | inconclusive: 61.3% |
| COc1ccc(OC)c(C2CC(=O)N3CN(c4ccccc4F)CSC3=C2C#N)c1 (stereo not given) | inactive: 29.3% |
| Cc1ccc(C2CN(c3ccccc3)CC2C(=O)c2ccc(F)cc2)cc1 (stereo not given) | inconclusive: 66.1% |

Quoted from the listing.
inhibition, O=C(CCNC(=O)N1CCn2c1nc1ccccc12)NCc1ccccc1 reads inactive: -1.3%
inhibition, CCCCCCC(=O)Oc1ccc(N2C(=O)CCC2=O)cc1 reads inconclusive: 56.2%
